PubChem BioAssay AID1259308 | NCATS | 2017
Screen: 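Candidate targets for better recombinant protein yield in mammalian cells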 (primary screen). System: human HEK293 embryonic kidney cells stably expressing firefly luciferase (HEK-CMV-Luc2-Hygro). Knock-down reagent: single siRNA against human genes, 0.8 pmol siRNA per well. Duration: 72 h. Measured: 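Luciferase light (ONE-Glo) measured on one replicate plate set and viability (CellTiter-Glo) on the other, scaled to a negative control siRNA, with robust z-scores and luciferase per cell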. Scale: total luciferase, z-score and total luciferase, % of control: higher = more reporter protein produced; luciferase per cell, z-score: higher = more reporter output per viable cell. Hit rule: 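Active when the median/MAD z-score for overall luciferase is greater than 3; a gene was taken forward for validation with new siRNAs if at least two of its three siRNAs passed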. Calls: active = raised luciferase; inactive = no rise.
The deposit covers about 59,000 reagents; shown is a random part of them. About 1,510 of them (2.6%) were called active. 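Calls use total luciferase alone and ignore viability, so some active siRNAs may act by altering cell number.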 Reagents against one gene are numbered here. Further read-outs or replicates are left out here.

gene knocked down | siRNA no. | total luciferase, z-score | total luciferase, % of control | luciferase per cell, z-score | outcome
PDSS1 | 1 | 0.504 | 91.9 | 0.385 | inactive
PDSS1 | 2 | -0.0888 | 80.1 | -0.835 | inactive
PDSS1 | 3 | -0.812 | 65.7 | -1.31 | inactive
ZNF429 | 1 | -0.0748 | 80.4 | -0.177 | inactive
ZNF429 | 2 | 0.963 | 101 | 0.805 | inactive
ZNF429 | 3 | 1.32 | 108 | 0.141 | inactive
RBM3 | 1 | -0.833 | 65.3 | -1.52 | inactive
RBM3 | 2 | -0.153 | 78.9 | 0.189 | inactive
RBM3 | 3 | 0.241 | 86.7 | -0.301 | inactive
SLC16A2 | 1 | 0.149 | 84.8 | -0.636 | inactive
SLC16A2 | 2 | -1.2 | 58.1 | -1.65 | inactive
SLC16A2 | 3 | 0.178 | 85.4 | -0.331 | inactive
ANKRD13C | 1 | 0.119 | 84.3 | 0.43 | inactive
ANKRD13C | 2 | 0.248 | 86.8 | -0.206 | inactive
ANKRD13C | 3 | 0.952 | 101 | 0.041 | inactive
COL4A3 | 1 | 0.0963 | 83.8 | -0.0845 | inactive
COL4A3 | 2 | -0.494 | 72.1 | 0.145 | inactive
COL4A3 | 3 | -0.77 | 66.6 | -0.832 | inactive
TTBK2 | 1 | -1.67 | 48.7 | -0.681 | inactive
TTBK2 | 2 | -0.394 | 74.1 | -0.299 | inactive
TTBK2 | 3 | -0.657 | 68.8 | 0.0536 | inactive
DDX50 | 1 | -0.976 | 62.5 | -1.5 | inactive
DDX50 | 2 | -0.456 | 72.8 | 0.417 | inactive
DDX50 | 3 | -0.481 | 72.3 | -0.693 | inactive
CDH5 | 1 | -1.56 | 50.9 | -1.73 | inactive
CDH5 | 2 | 0.279 | 87.4 | 0.239 | inactive
CDH5 | 3 | -1.34 | 55.2 | -1.47 | inactive
CPT1C | 1 | -0.183 | 78.3 | -0.725 | inactive
CPT1C | 2 | -0.497 | 72 | -0.127 | inactive
CPT1C | 3 | -1.43 | 53.5 | -0.549 | inactive
TMEM108 | 1 | 0.00379 | 82 | -0.631 | inactive
TMEM108 | 2 | 0.121 | 84.3 | -0.563 | inactive
TMEM108 | 3 | 0.616 | 94.1 | 1.12 | inactive

Entries above whose target name begins with R or r:
gene knocked down | siRNA no. | total luciferase, z-score | total luciferase, % of control | luciferase per cell, z-score | outcome
RBM3 | 1 | -0.833 | 65.3 | -1.52 | inactive
RBM3 | 2 | -0.153 | 78.9 | 0.189 | inactive
RBM3 | 3 | 0.241 | 86.7 | -0.301 | inactive

Additional reagents:
gene knocked down | siRNA no. | total luciferase, z-score | total luciferase, % of control | luciferase per cell, z-score | outcome
ITPKC | 1 | 2.36 | 129 | 1.86 | inactive
ITPKC | 2 | 0.553 | 92.9 | -0.3 | inactive
ITPKC | 3 | -1.3 | 56 | -1.6 | inactive
MAP2K4 | 1 | 1.83 | 118 | 0.616 | inactive
MAP2K4 | 2 | -0.374 | 74.4 | -1.34 | inactive
MAP2K4 | 3 | -2.53 | 31.6 | -1.26 | inactive
SEC23IP | 1 | 0.598 | 93.8 | 0.229 | inactive
SEC23IP | 2 | -1.43 | 53.5 | -0.612 | inactive
SEC23IP | 3 | -0.731 | 67.4 | -0.895 | inactive
SYNE3 | 1 | -0.331 | 75.3 | 1.06 | inactive
SYNE3 | 2 | 2.9 | 140 | 2.45 | inactive
SYNE3 | 3 | 1.94 | 120 | 0.817 | inactive
RAB7A | 1 | 0.0596 | 83.1 | -0.374 | inactive
RAB7A | 2 | 0.662 | 95 | 0.859 | inactive
RAB7A | 3 | 2.44 | 130 | 1.33 | inactive
VSIR | 1 | -0.181 | 78.3 | -0.381 | inactive
VSIR | 2 | -1.13 | 59.5 | -0.198 | inactive
VSIR | 3 | 0.426 | 90.4 | 0.725 | inactive
ZZZ3 | 1 | -1.74 | 47.3 | -1.76 | inactive
ZZZ3 | 2 | 1.35 | 109 | 1.68 | inactive
ZZZ3 | 3 | 0.386 | 89.6 | -0.00163 | inactive
GCM2 | 1 | 0.841 | 98.6 | 0.901 | inactive
GCM2 | 2 | 0.547 | 92.8 | 0.733 | inactive
GCM2 | 3 | -0.895 | 64.1 | -0.96 | inactive
